Experimental data taken from patent publication US6841563B1, “Aryloxy propanolamines for improving livestock production” (Eli Lilly and Company, priority 1999, dated 2005).

Assay: 28-day cattle study, orally administered Compound 6: growth and carcass measurements
Assay type: in vivo
Protocol: Thirty-two Angus crossbred steers were blocked by weight into a heavy (4 heaviest blocks, avg. initial BW=1226 lb. (557 kg)) and a light (4 lightest blocks, avg. initial BW=1164 lb. (528 kg)) replication. The steers within each block were assigned to one of four treatments (8 steers/treatment) to investigate the effects of orally administered Compound 6 on the growth and carcass measurements when fed to cattle for 28 days immediately prior to slaughter. The treatments included a CONTROL (0.0 mg Compound 6 per kg BW), and three levels of Compound 6 (LOW, 0.125 mg Compound 6 per kg BW; MED, 0.250 mg Compound 6 per kg BW; HIGH, 0.500 mg Compound 6 per kg BW). Compound 6 was mixed with ground corn and fed to the steers as a top dress on a portion of their daily feed. The CONTROL steers received a similar amount of a ground corn top dress. The steers were required to consume the initial feed and top dress before the remaining amount of feed was issued. The basal ration was a commercially available feed (19.3% CP, DM basis). Both feed and water were available ad libitum. The steers were individually housed in 12 ft×48 ft pens equipped with an individual feed bunk and automatic waterer. On day 28 the steers were weighed and a blood sample collected prior to being shipped for slaughter and subsequent carcass evaluation.

CC(C)(Cc1ccc(Oc2ncccc2C(N)=O)cc1)NC[C@H](O)COc1cccc2[nH]ccc12 [Compound 6, (S)-2-[4-[2-[2-Hydroxy-3-(1H-indol-4-yloxy)propylamino]-2-methylpropyl]-phenoxy]-3-pyridinecarboxamide]
color (Hunter a*, b*, L*) or pH of longissimus dorsi strip steaks (14 day post-mortem aging, P>0.5): no treatment differences | Subjective color, texture, and firmness of the longissimus dorsi muscle at the twelfth rib (approximately 24 hour post-mortem, F-test P>0.07): no treatment differences
